# Measured values: PubChem BioAssay AID1487 (National Center for Advancing Translational Sciences (NCATS), 2009)
# The other results are listed elsewhere or left out. Further columns of the screen follow, without active or inactive calls. Compounds called inactive in the main read-out are mostly missing here. The note in brackets gives the kind of curve behind each potency; many fits are weak.
# Assay: qHTS Assay for Modulators of Lamin A Splicing
# Details: HeLa LMNA splicing GFP/RFP minigene ratio, 48 h
# Summary of the method: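 S3 HeLa stable clones carrying a lamin A-EGFP splicing minigene plus DsRed2 were seeded at 600 cells/well in Opti-MEM with 2% FBS, pin-dosed and incubated 48 h at 37°C. Acumen cytometry (488 nm) gave the GFP/RFP total-intensity ratio.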
# [1] = measured here: GFP splicing reporter channel
# [2] = measured here: RFP viability control channel
Structure (SMILES),AC50 [1],AC50 [2]
Cc1ccc2c(CC(=O)NCC(C)(C)N3CCOCC3)coc2c1,"3.98 µM [rising, full curve]",
CN1CCO[C@H](c2ccccc2)c2ccccc2C1,"0.0708 µM [falling, single point]","0.158 µM [falling, partial curve, poor fit]"
Cc1cccc(C)c1NC(=O)NCCCN1CCN(c2ccccc2)CC1,"0.158 µM [falling, full curve, poor fit]","0.178 µM [falling, full curve, poor fit]"
CCN1CCN(C(=O)c2oc(=O)c3ccccc3c2-c2ccc(C)cc2)CC1,,"14.1 µM [rising, single point]"
CC(O)C(O)[C@H]1CNc2nc(N)[nH]c(=O)c2N1 (stereo partly drawn),"1.58 µM [falling, partial curve, poor fit]",
COc1ccc(NC(=O)Cn2c(=O)oc3cc(Cl)ccc32)c(OC)c1,,"0.501 µM [falling, full curve]"
Cc1cc([N+](=O)[O-])ccc1-c1ccc(C2Nc3ccccc3C(=O)N2O)o1 (stereo not drawn),"6.31 µM [falling, single point]",
CCOC(=O)N1CCN(c2nc(-c3ccc(OC)cc3)no2)CC1,"5.01 µM [rising, full curve]","12.6 µM [rising, partial curve]"
COC(=O)c1cc(NC(=O)c2ccc(-c3ccccc3)cc2)ccc1Cl,"12.6 µM [rising, partial curve]","8.91 µM [rising, partial curve]"
COc1ccc(C2CC(c3ccccc3)=NN2C(=O)c2cccs2)cc1 (stereo not drawn),,"7.08 µM [rising, partial curve, poor fit]"
O=C(CSc1nc2c([nH]c3ccccc32)c(=O)n1-c1ccccc1)N1CCCc2ccccc21,"0.316 µM [falling, full curve, poor fit]",
CCOC(=O)C1CCN(C(c2ccc(C)cc2)c2c(O)cc(C)n(CCOC)c2=O)CC1 (stereo not drawn),"0.398 µM [rising, full curve, poor fit]",
CCO/C([O-])=N/c1c[n+](N2CCOCC2)no1,"35.5 µM [falling, partial curve, poor fit]","6.31 µM [falling, partial curve, poor fit]"
Cc1c(CC(Cl)(Cl)Cl)c2c(n1O)CC(C)(C)CC2=O,"35.5 µM [rising, single point]",
CC(=O)/C=C/c1ccc2ccccc2n1,"5.62 µM [falling, single point]","1.41 µM [falling, single point]"
CCc1ccccc1NC(=O)CCC(=O)OCC(=O)c1ccc(-c2ccccc2)cc1,"0.0355 µM [rising, full curve, poor fit]","0.126 µM [rising, full curve]"
Oc1ccccc1C1=Nc2ncnn2C(c2ccccc2)C1 (stereo not drawn),"17.8 µM [rising, single point]","22.4 µM [rising, single point]"
C=CCNC(=O)c1ccccc1NC(=O)c1ccc(Cl)c(S(=O)(=O)Nc2cccc(C)c2C)c1,,"17.8 µM [rising, partial curve, poor fit]"
CC1=CC(=O)C=C(C)C1=NOc1ccccc1[N+](=O)[O-],"12.6 µM [rising, single point]","11.2 µM [rising, single point]"

Structure (SMILES),AC50 [1],AC50 [2]
CC(C)c1ccc(CNc2nc3nc4c(c(=O)n3[nH]2)CCC4)cc1,,"3.16 µM [rising, partial curve, poor fit]"
CC(=O)c1ccc(NC(=S)NCc2ccc(Cl)cc2Cl)cc1,"12.6 µM [rising, single point]","11.2 µM [rising, partial curve]"
COc1ccc(N)c2c1OCCC2=O,,"0.126 µM [rising, full curve]"
CCCS(=O)(=O)N1CCC(C(=O)N2CCOCC2)CC1,"0.794 µM [falling, full curve, poor fit]","0.562 µM [falling, full curve, poor fit]"
NC(=O)CNCCC(c1ccccc1)c1ccccc1,"5.62 µM [falling, partial curve, poor fit]",
COc1ccc(-c2nc3cnc(N4CCN(C)CC4)nc3n(Cc3cccs3)c2=O)cc1,,"15.8 µM [falling, partial curve, poor fit]"
CCN(CC)S(=O)(=O)c1ccc(Oc2ccc(S(=O)(=O)N(CC)CC)cc2)cc1,,"2.51 µM [rising, full curve]"
COc1ccc(C2CC(c3ccco3)n3ncnc3N2)cc1 (stereo not drawn),"35.5 µM [falling, single point]",
O=C1/C(=C/c2ccccc2O)SC(=S)N1Cc1cccnc1,"11.2 µM [falling, partial curve, poor fit]",
O=C(/C=C/c1ccccc1)NC(NC(=S)Nc1cccc(Cl)c1)C(Cl)(Cl)Cl (stereo not drawn),,"8.91 µM [rising, partial curve]"
CCCCCN(CCCCC)C(=O)[C@H](CCC(=O)O)NC(=O)c1ccc(Cl)c(Cl)c1,"1.78 µM [falling, single point]","3.16 µM [falling, single point]"
CCCc1nc2ccccc2c(C(=O)OC(C)C(=O)NCc2ccc3c(c2)OCO3)c1CC (stereo not drawn),"17.8 µM [rising, partial curve]","22.4 µM [rising, partial curve]"
N#CC1=C(N)NC(SCc2ccccc2)=C(C#N)C12CCCC2,"0.0251 µM [rising, full curve, poor fit]","25.1 µM [rising, partial curve, poor fit]"
CCn1c([N+](=O)[O-])nc2c1c(=O)[nH]c(=O)n2C,,"35.5 µM [falling, single point]"
Cc1nn(Cc2ccc(Cl)cc2Cl)c(C)c1NC(=O)c1nc2n(n1)C(C(F)F)CC(C)N2 (stereo not drawn),,"5.62 µM [rising, single point]"
CCc1c(C)[nH]c2c1C(=O)C(CN1CCOCC1)CC2 (stereo not drawn),"5.62 µM [falling, partial curve, poor fit]","6.31 µM [falling, single point]"
O=C(COc1ccc(Br)cc1)N1CCN(c2ccc([N+](=O)[O-])c(N3CCCCC3)c2)CC1,,"25.1 µM [rising, partial curve, poor fit]"
CCc1cccc(CC)c1NC(=O)CN1C2CCCC1CC(NC(=O)Nc1cccc(OC)c1)C2 (stereo not drawn),"0.708 µM [falling, partial curve, poor fit]",
O=C1N/C(=C/c2ccc(N3CCOCC3)o2)C(=O)N1c1ccccc1,"35.5 µM [falling, single point]",

# Reprinted at random: 4 records from the list.
Structure (SMILES),AC50 [1],AC50 [2]
CCCS(=O)(=O)N1CCC(C(=O)N2CCOCC2)CC1,"0.794 µM [falling, full curve, poor fit]","0.562 µM [falling, full curve, poor fit]"
COc1ccc(C2CC(c3ccco3)n3ncnc3N2)cc1 (stereo not drawn),"35.5 µM [falling, single point]",
Cc1nn(Cc2ccc(Cl)cc2Cl)c(C)c1NC(=O)c1nc2n(n1)C(C(F)F)CC(C)N2 (stereo not drawn),,"5.62 µM [rising, single point]"
CC1=CC(=O)C=C(C)C1=NOc1ccccc1[N+](=O)[O-],"12.6 µM [rising, single point]","11.2 µM [rising, single point]"

# Continuation.

Structure (SMILES),AC50 [1],AC50 [2]
COc1ccc(NC(=O)CSc2nnc(Cn3c(=O)sc4ccccc43)n2C)c(OC)c1,,"35.5 µM [rising, single point]"
COc1ccc(OCCOC(=O)Nc2ccccc2)cc1,,"14.1 µM [rising, single point]"
O=C(CSCSCC(=O)Nc1ccc2c(c1)OCO2)Nc1ccc2c(c1)OCO2,,"10 µM [rising, single point]"
Cc1ccc(Cn2ccnc2SCC(=O)Nc2nnc(C)s2)cc1,,"1.78 µM [rising, partial curve]"
O=C1NN(c2ccccc2)C(=O)/C1=C/c1ccc(Sc2cccc3ccccc23)o1,,"25.1 µM [rising, partial curve]"
COc1ccc(N2C(=O)CN(Cc3ccc(OC)c(OC)c3)C2=S)cc1,"0.0708 µM [rising, full curve, poor fit]",
C/C(=N\NC(=O)CNC(=O)C(c1ccccc1)c1ccccc1)c1ccc(C)cc1,,"0.794 µM [rising, full curve, poor fit]"
CCc1ccccc1NC(=O)CN1C(=O)CCSc2ccc(S(=O)(=O)N3CCCC3)cc21,"0.00316 µM [falling, full curve, poor fit]",
O=C(c1sc2cc(F)ccc2c1Cl)N1CCN(c2ccccc2)CC1,"31.6 µM [rising, single point]","35.5 µM [rising, single point]"
O=C(NCCCN1CCCC1=O)c1cccc(Oc2ccccc2)c1,,"0.0158 µM [rising, full curve, poor fit]"
CCc1ccccc1NC(=O)C(C)n1c(=O)cc(C)c2c(C)nn(-c3ccccc3)c21 (stereo not drawn),"0.01 µM [falling, full curve, poor fit]",
O=C(NCC1([N+](=O)[O-])CN(C(=O)c2ccccc2)CN(C(=O)c2ccccc2)C1)c1ccccc1,"7.94 µM [falling, partial curve]",
Cc1ccc(-n2nnnc2C(Cl)c2nnnn2-c2ccc(C)cc2)cc1,,"12.6 µM [rising, single point]"
Cc1nn2c(COc3ccc(NC(=O)c4ccccc4)cc3)nnc2c2ccccc12,"0.141 µM [falling, partial curve, poor fit]",
O=C(CN1CCCCC1)NN(Cc1ccccc1)c1ccccc1,,"0.02 µM [rising, full curve, poor fit]"
O=C(C/C=N\OCc1ccc(Cl)cc1Cl)Nc1ccccc1,"39.8 µM [falling, partial curve, poor fit]",
COc1ccccc1NC(=O)c1c(Nc2ccccc2C)sc(C(=O)Nc2cccc(Cl)c2)c1N,"3.55 µM [falling, partial curve]",
Cc1ccc2c(CN3CCN(S(=O)(=O)c4ccc5c(c4)OCCO5)CC3)cc(=O)oc2c1C,"7.08 µM [rising, full curve, poor fit]","6.31 µM [rising, full curve]"
